# PubChem BioAssay AID485349 (National Center for Advancing Translational Sciences (NCATS), 2010)
# The campaign covered roughly 320,000 compounds. About 620 (0.19%) were called active. Inconclusive results, whose numbers are uncertain, are shown with a selection of clear calls. Calls come from the whole dose curve; as a rule, active = well fitted activation curve with a large enough effect; inconclusive = small, poorly fitted or top-dose-only effect; inactive = no such curve, though single readings can be large or run the other way. Where the call is inconclusive, the potency comes from a doubtful curve fit.
# Experiment: qHTS Assay for Identifying a Potential Treatment of Ataxia-Telangiectasia; note: nearly all actives have a fitted effect of over 45% in size
# Conditions: […] A-T fibroblasts, KAP-1 phosphorylation AlphaLISA, neocarzinostatin DNA damage 30 min before lysis; series mostly up to 57.5 µM
# Outline: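 hTERT-immortalized A-T patient fibroblasts ([…]), 500 cells/well in OPTI-MEM, 1% FBS, got compounds for 60 min, then NCS for 30 min at 37C. Lysates were then assayed for phospho-KAP-1 by AlphaLISA (anti-pKAP1 donor, anti-KAP1 acceptor beads), 6 hr at 25C.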
# Potency is the fitted concentration of half-maximal effect.
row,SMILES,Potency
1,Cc1ccc(OCC(=O)Oc2c(C)cccc2C)cc1C,"inconclusive: 39.8 µM [activator, single point]"
2,c1ccc2c(c1)Oc1cccc3cccc-2c13,active: 10 µM
3,COC(=O)c1cc2c(s1)-c1ccc(OC)cc1CC2,"inconclusive: 35.5 µM [activator, single point]"
4,CNC(=S)N(CCO)Cc1cc2cc3c(cc2[nH]c1=O)OCCO3,active: 2.82 µM
5,CC1=C/C(=C\C=C(C#N)C#N)N(C)c2ccccc21,active: 12.6 µM
6,CC(Oc1ccc(Cl)cc1Cl)c1nc(-c2ccc(NC(=O)c3ccncc3)cc2)no1 (stereo not drawn),inactive
7,CCN(CC)c1ccc2c(C)cc(=O)oc2c1,active: 31.6 µM
8,C=CCn1c(SCC(=O)c2cc(C)n(CCOC)c2C)nc2sc(C)c(C)c2c1=O,"inconclusive: 3.16 µM [activator, partial curve]"
9,CCOc1ccccc1CNC(c1ccccc1)c1ccccc1,"inconclusive: 39.8 µM [activator, single point]"
10,Fc1cccc(Cl)c1CNC(c1ccccc1)c1ccccc1,active: 31.6 µM
11,Cc1nc(-n2nnc3cc(C)c(C)cc32)c2c3c(sc2n1)CCCC3,"inconclusive: 3.98 µM [activator, single point]"
12,CCOC(=O)c1ccc(N2C(=O)c3n[nH]c(C)c3C2c2ccccc2)cc1 (stereo not drawn),inactive
13,O=C(NCCc1ccc(Cl)cc1)c1cc2ccccn2n1,inactive
14,COC(=O)c1ccc(OC)c(CN2CCCN(Cc3ccc(F)cc3)S2(=O)=O)c1,"inconclusive: 3.55 µM [activator, partial curve]"
15,CCn1nc(C)c(CNC(=O)c2cc(COc3ccc(F)cc3Cl)on2)c1C,active: 1.58 µM
16,CC(=O)Nc1cccc(C(=O)/C=C/c2ccc(F)cc2)c1,"inconclusive: 25.1 µM [activator, single point]"
17,Cc1ccc2c(c1)Sc1ccccc1CC2=O,active: 39.8 µM
18,CCC(C)[C@@H](C(=O)Nc1ccc(OC)c(OC)c1)N1Cc2ccccc2C1=O (stereo partly drawn),"inconclusive: 6.31 µM [activator, single point]"
19,CCN1C/C(=C/c2ccc(OC)c(O)c2)C(=O)/C(=C/c2ccc(OC)c(O)c2)C1,"inconclusive: 22.4 µM [activator, single point]"
20,CCCN1CN(c2ccccc2)C(=S)N(c2ccccc2)C1,active: 1.12 µM
21,COCC(=O)N(C)c1nnc(-c2ccc([N+](=O)[O-])cc2)s1,inactive
22,FC(F)(F)c1nnc(N2CCN(c3ccc(Cl)cc3)CC2)s1,"inconclusive: 1.78 µM [activator, partial curve]"
23,COc1cc(/C=N\Nc2nc3ccccc3[nH]2)cc(OC)c1OC,inactive
24,CC(C)c1nc(SCC(=O)NC2CCCC2)c2c(=O)n(C)c(=O)n(C)c2n1,"inconclusive: 22.4 µM [activator, single point]"
25,Cc1cccc(NC(=O)CSc2nnc(-c3ccccc3)n2N)c1,"inconclusive: 3.55 µM [activator, partial curve]"

# Exported with bars between the fields: part of the list above
row | SMILES | Potency
3 | COC(=O)c1cc2c(s1)-c1ccc(OC)cc1CC2 | inconclusive: 35.5 µM [activator, single point]
21 | COCC(=O)N(C)c1nnc(-c2ccc([N+](=O)[O-])cc2)s1 | inactive
22 | FC(F)(F)c1nnc(N2CCN(c3ccc(Cl)cc3)CC2)s1 | inconclusive: 1.78 µM [activator, partial curve]

# Following part.

row,SMILES,Potency
1,O=c1oc2ccccc2n1CSc1nc2ccccc2s1,"inconclusive: 3.16 µM [activator, partial curve]"
2,Cc1ccc(C(=O)NCC(c2ccco2)N2CCOCC2)cc1 (stereo not drawn),"inconclusive: 3.16 µM [activator, partial curve]"
3,CCOC(=O)/C(C#N)=C/c1cc2cc(C)c(C)cc2nc1Cl,"inconclusive: 35.5 µM [activator, single point]"
4,O=C(CSc1ncc(-c2ccccc2)n1CC1CCCO1)N1CCCCC1 (stereo not drawn),"inconclusive: 2.51 µM [activator, partial curve]"
5,CCOC(=O)N1CCC(Nc2c(NCCCN3CCN(c4ccc(OC)cc4)CC3)c(=O)c2=O)CC1,active: 11.2 µM
6,CC1=NN(c2ccc(C)c(C)c2)C(=O)/C1=C\C=C\c1ccc([N+](=O)[O-])o1,active: 31.6 µM
7,CC(C)=NNc1nc2c(c(=O)[nH]c(=O)n2C)n1CCCc1ccccc1,"inconclusive: 22.4 µM [activator, single point]"
8,C=CCN1c2ccccc2[C@]23C[C@@H](C(=O)OC)N(C(C)=O)C2=NC(C(=O)OC)=C(C(=O)OC)[C@H]13,active: 12.6 µM
9,O=c1c2cc(Br)ccc2nc(-c2ccccc2)n1O,active: 0.708 µM
10,Nc1nnc(CC(=O)N/N=C/c2cccc([N+](=O)[O-])c2)s1,inactive
11,CC(=O)N/C(=N/c1nc(C)cc(C)n1)Nc1cccc(C)c1,"inconclusive: 10 µM [activator, partial curve, poor fit]"
12,[O-][n+]1c2ccccc2cc2ccccc21,"inconclusive: 39.8 µM [activator, single point]"
13,CC1(C)COC(c2cccn2Cc2ccc(F)cc2Cl)=N1,"inconclusive: 39.8 µM [activator, single point]"
14,CCOc1ccc(C(=O)NCC(c2cccs2)N2CCOCC2)cc1 (stereo not drawn),"inconclusive: 35.5 µM [activator, single point]"
15,CC[C@]1(c2cccc(C)c2)C(=O)N(C(=O)OC)N1C(=O)OC,"inconclusive: 17.8 µM [activator, partial curve]"
16,FC(F)(F)c1cc(-c2ccccc2)nc(NCc2cccs2)n1,"inconclusive: 39.8 µM [activator, single point]"
17,Cc1cc(C)c2cc(CN(CCN3CCCC3)C(=O)Nc3ccc(F)cc3)c(=O)[nH]c2c1,"inconclusive: 39.8 µM [activator, single point]"
18,Cc1ccc(-n2nnc(-c3cc4ccccc4n3C)n2)cc1,"inconclusive: 39.8 µM [activator, partial curve]"
19,CN1CCN(CCC(=O)N/N=C/c2ccccn2)CC1,inactive
20,Fc1ccc(/C=N/NC(=S)Nc2ccc(Cl)cc2Cl)cc1,active: 7.08 µM
21,O=C(O)c1ccccc1NS(=O)(=O)c1cccc2nsnc12,"inconclusive: 7.08 µM [activator, single point]"
22,CC1(C)Cc2c(C#N)c(NCCO)nc(-c3ccco3)c2CO1,"inconclusive: 28.2 µM [activator, partial curve]"
23,COc1ccc(-c2c(C)nn3c(NC4CCCC4)cc(C)nc23)cc1OC,"inconclusive: 7.08 µM [activator, partial curve]"
24,Cc1ccc(-c2noc(CSc3nnnn3-c3ccccc3)n2)cc1,"inconclusive: 0.631 µM [activator, partial curve, poor fit]"
25,Cc1ccc(Cl)c(OCCCN(C)Cc2ccccc2)c1,"inconclusive: 39.8 µM [activator, single point]"

# Structures listed so far containing a furan ring, fused or not:
row,SMILES,Potency
2,Cc1ccc(C(=O)NCC(c2ccco2)N2CCOCC2)cc1 (stereo not drawn),"inconclusive: 3.16 µM [activator, partial curve]"
6,CC1=NN(c2ccc(C)c(C)c2)C(=O)/C1=C\C=C\c1ccc([N+](=O)[O-])o1,active: 31.6 µM
22,CC1(C)Cc2c(C#N)c(NCCO)nc(-c3ccco3)c2CO1,"inconclusive: 28.2 µM [activator, partial curve]"

# Following part

row,SMILES,Potency
1,Cc1ccc(S(=O)(=O)N2CCOCC2)cc1NC(=O)c1cc(-c2ccccn2)nc2ccccc12,"inconclusive: 39.8 µM [activator, single point]"
2,CCN(CC)CCCN(C(C)=O)c1nc(-c2cc(OC)ccc2OC)cs1,"inconclusive: 35.5 µM [activator, partial curve]"
3,Cc1cccnc1NC(=O)Nc1ccccc1,"inconclusive: 25.1 µM [activator, partial curve, poor fit]"
4,Oc1cccc(NC(=S)N=Nc2c(O)[nH]c3ccccc23)c1,active: 1.26 µM
5,Cc1cc(C)c(C(N)=O)c(SCC(=O)c2cc(C)n(-c3cc(C)on3)c2C)n1,"inconclusive: 28.2 µM [activator, partial curve]"
6,COCCNC(=O)C1CC2Cn3c(nc4cc5ccccc5cc43)C2N1C (stereo not drawn),"inconclusive: 39.8 µM [activator, partial curve, poor fit]"
7,Cc1cc(C)c2cc3c(N)c(C(=O)N4CCc5ccccc5C4)sc3nc2c1,inactive
8,O=C(O)c1ccc(COc2ccccc2C=C2C(=O)c3ccccc3C2=O)cc1,inactive
9,COc1ccc(NS(=O)(=O)c2cccc(NC(=O)CNC(C)=O)c2)cc1,"inconclusive: 3.16 µM [activator, partial curve]"
10,CCN(C[C@H]1N[C@@](CC)(C(=O)OC)[C@H]2C(=O)N(C)C(=O)[C@@H]12)S(=O)(=O)c1ccc(OC(F)(F)F)cc1,inactive
11,CCC(=O)NS(=O)(=O)c1ccc(N=NN2CCCCC2)cc1,inactive
12,Cc1cc([N+](=O)[O-])ccc1N,inactive
13,O=C(CSc1ccc2ccccc2c1)N1CCN(c2ccc(O)cc2)CC1,active: 25.1 µM
14,Cc1cc2nc3n(c2cc1C)CC1CC(C(=O)NCC2CC2)N(C)C31 (stereo not drawn),active: 28.2 µM
15,CCOC(=O)c1cc2c(s1)-c1c(C)cccc1OC2,"inconclusive: 39.8 µM [activator, partial curve]"
16,CCOc1ccccc1N1CC(C(=O)Nc2ccccc2N2CCOCC2)CC1=O (stereo not drawn),"inconclusive: 3.16 µM [activator, full curve]"
17,CN(C(=O)CSc1nnc(C(F)(F)F)n1N)C1CCS(=O)(=O)C1 (stereo not drawn),"inconclusive: 3.16 µM [activator, partial curve]"
18,O=C(COc1ccccc1Cl)NCCCNC(=O)c1cnccn1,"inconclusive: 7.08 µM [activator, partial curve]"
19,CC(C)c1cccc(C(C)C)c1OC(=O)NC(=O)c1c(F)cccc1F,inactive
20,CCN(CC)CCC(c1cc(OC)c(OC)c(OC)c1)c1c(OC)cc(OC)c2c(C)cc(=O)oc12 (stereo not drawn),"inconclusive: 39.8 µM [activator, partial curve, poor fit]"
21,CC(C)N(C(=O)Nc1ccc2nsnc2c1)C(C)C,active: 31.6 µM
22,C=Cc1c(C)c2cc3[nH]c(cc4nc(cc5nc(cc1[nH]2)C(C)=C5CCC(=O)O)C(CCC(=O)O)=C4C)c(C)c3C=C,active: 31.6 µM
23,CCOC(=O)C1=C(C)N=c2s/c(=C\c3ccc(OCC(=O)O)c(OC)c3)c(=O)n2C1c1ccc(OC)cc1 (stereo not drawn),inactive
